Results from PubChem BioAssay AID256 (DTP/NCI, 2004).
The list is a part of this screen's results and no random one: it gathers tests that were run many times, whatever their T/C, doses with no T/C, and many T/C values between a quarter and a half above the control. Other doses and runs of a compound stand elsewhere. T/C is the treated group as % of the vehicle group. Some entries give survivors of the animals treated and no T/C: the source holds a T/C of zero for them, seemingly a mark for toxic or unscored doses. Some survivor counts are full or nearly so, which does not show that the dose was tolerated: the source hardly ever lists a survival T/C far under the control, and the zero likely stands for such cases as well. Counts of survivors are from the toxicity check (mostly the fifth day) where no day follows; animals may have died later. Schedules are NCI's codes, taken here to give the interval after Q, in days (D) or hours (H), and the number of doses after X. Marks such as (2×) give the number of equal values in this list. Some entries hold several experiments; the values are given in rising order. Where survival is the endpoint, this PubChem deposit counts one and a half times the control or more as active, and values a quarter to a half above the control carry no call in these data; other NCI protocols may use other cut-offs.

Tested on: CD2F1 mice, L1210 leukemia ip, survival T/C
Test: NCI In Vivo Anticancer Drug Screen. Data for tumor model L1210 Leukemia (intraperitoneal) in CD2F1 (CDF1) mice
Details: higher T/C = longer survival
Outline: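 Transplantable tumor in mice; compound-treated vs vehicle-treated groups. Read-out = treated/control ratio of the measured endpoint.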

[1] = T/C endpoint: mean survival time, dose: 400.0 mg/kg/injection, schedule: Q01DX001 (ip), vehicle: saline
[2] = T/C endpoint: mean survival time, dose: 200.0 mg/kg/injection, schedule: Q01DX009 (ip), vehicle: saline with Tween-80
[3] = T/C endpoint: mean survival time, dose: 400.0 mg/kg/injection, schedule: Q04DX003 (ip), vehicle: saline with Tween-80
[4] = T/C endpoint: mean survival time, dose: 100.0 mg/kg/injection, schedule: Q01DX009 (ip), vehicle: saline with Tween-80
[5] = T/C endpoint: mean survival time, dose: 400.0 mg/kg/injection, schedule: Q01DX009 (ip), vehicle: saline with Tween-80
[6] = T/C endpoint: mean survival time, dose: 200.0 mg/kg/injection, schedule: Q04DX003 (ip), vehicle: saline with Tween-80
[7] = T/C endpoint: mean survival time, dose: 400.0 mg/kg/injection, schedule: Q01DX001 (ip), vehicle: saline with Tween-80

`C=CC1=CC(=O)OC1=O` was tested, and the survivor count (T/C endpoint: mean survival time, dose: 75.0 mg/kg/injection, schedule: Q01DX001 (ip), vehicle: saline) was 0 of 6 (2×), the survivor count (T/C endpoint: mean survival time, dose: 150.0 mg/kg/injection, schedule: Q01DX001 (ip), vehicle: saline) was 0 of 6 (2×) and the survivor count (T/C endpoint: mean survival time, dose: 300.0 mg/kg/injection, schedule: Q01DX001 (ip), vehicle: saline) was 0 of 6 (2×).

With `C[n+]1c2ccccc2c(N=[N+]=[N-])c2ccccc21` the survivor count (T/C endpoint: mean survival time, dose: 100.0 mg/kg/injection, schedule: Q01DX001 (ip), vehicle: saline) was 0 of 6, the survivor count (T/C endpoint: mean survival time, dose: 200.0 mg/kg/injection, schedule: Q01DX001 (ip), vehicle: saline) was 0 of 6 and the survivor count [1] was 0 of 6.

In the case of `S=P(Cc1ccccc1)(c1ccccc1)c1ccccc1`, the survivor count [2] is reported as 6 of 6 and the survivor count [3] is reported as 6 of 6.

`O=c1[nH]nc(OCc2ccccc2)c2ncn(Cc3ccccc3)c12` was tested, and the survivor count (T/C endpoint: mean survival time, dose: 25.0 mg/kg/injection, schedule: Q01DX005 (ip), vehicle: other) was 3 of 3 and the survivor count (T/C endpoint: mean survival time, dose: 50.0 mg/kg/injection, schedule: Q01DX005 (ip), vehicle: other) was 3 of 3.

For `CNC(=O)NNC(=O)CNC(=O)Nc1cccc([N+](=O)[O-])c1`, the survivor count [4] was 0 of 6, the survivor count [2] was 0 of 6 and the survivor count [5] was 0 of 6.

`OCC1OC(n2cnc3c(SSc4ncnc5c4ncn5C4OC(CO)C(O)C4O)ncnc32)C(O)C1O` (centres undefined) was tested, and the T/C (T/C endpoint: mean survival time, dose: 267.0 mg/kg/injection, schedule: Q01DX009 (ip), vehicle: saline) was 143 % of control and the survivor count (T/C endpoint: mean survival time, dose: 600.0 mg/kg/injection, schedule: Q01DX009 (ip), vehicle: saline) was 3 of 6.

For `O=C(SC1=NCCN1)c1ccccc1`, the survivor count [1] was 6 of 6.

In the case of `Cc1ccc(C(=O)NN)cc1`, the survivor count [6] is reported as 0 of 6 and the survivor count [3] is reported as 0 of 6.

`COc1cc([C@@H]2c3cc4c(cc3[C@H](O)[C@H]3COC(=O)[C@H]23)OCO4)cc(OC)c1OC` was tested, and the T/C (T/C endpoint: median survival time, dose: 1.44 mg/kg/injection, schedule: Q01DX005 (ip), vehicle: saline with Tween-80) was 132 % of control, the T/C (T/C endpoint: median survival time, dose: 2.4 mg/kg/injection, schedule: Q01DX005 (ip), vehicle: saline with Tween-80) was 126 % of control and the T/C (T/C endpoint: median survival time, dose: 2.5 mg/kg/injection, schedule: Q01DX009 (ip), vehicle: saline with Tween-80) was 125 % of control. For the same compound, the T/C (T/C endpoint: median survival time, dose: 3.0 mg/kg/injection, schedule: Q01DX009 (ip), vehicle: saline with Tween-80) was 142 % of control, the T/C (T/C endpoint: median survival time, dose: 4.0 mg/kg/injection, schedule: Q01DX005 (ip), vehicle: Klucel (hydroxypropylcellulose) (HPC)) was 131 % of control and the T/C (T/C endpoint: median survival time, dose: 4.0 mg/kg/injection, schedule: Q01DX005 (ip), vehicle: saline with Tween-80) was 136 % of control. For the same compound, the T/C (T/C endpoint: median survival time, dose: 5.0 mg/kg/injection, schedule: Q01DX009 (ip), vehicle: saline with Tween-80, evaluated on day 20) was 141 % of control, the T/C (T/C endpoint: median survival time, dose: 5.0 mg/kg/injection, schedule: Q01DX009 (ip), vehicle: saline with Tween-80, evaluated on day 30) was 128 and 147 % of control and the T/C (T/C endpoint: median survival time, dose: 6.67 mg/kg/injection, schedule: Q01DX005 (ip), vehicle: saline with Tween-80) was 144 % of control. For the same compound, the survivor count (T/C endpoint: median survival time, dose: 8.0 mg/kg/injection, schedule: Q01DX005 (ip), vehicle: Klucel (hydroxypropylcellulose) (HPC)) was 5 of 6, the T/C (T/C endpoint: median survival time, dose: 8.33 mg/kg/injection, schedule: Q01DX009 (ip), vehicle: saline with Tween-80) was 125 % of control and the T/C (T/C endpoint: median survival time, dose: 11.11 mg/kg/injection, schedule: Q01DX005 (ip), vehicle: saline with Tween-80) was 136 % of control. For the same compound, the survivor count (T/C endpoint: median survival time, dose: 16.0 mg/kg/injection, schedule: Q01DX005 (ip), vehicle: Klucel (hydroxypropylcellulose) (HPC)) was 2 of 6 and the survivor count (T/C endpoint: median survival time, dose: 32.0 mg/kg/injection, schedule: Q01DX005 (ip), vehicle: Klucel (hydroxypropylcellulose) (HPC)) was 3 of 6.

`CC1(C)C=CC(C)(C)c2c(NS(=O)(=O)c3ccccc3)ccc(NS(=O)(=O)c3ccccc3)c21` was tested, and the survivor count [6] was 6 of 6.

`O=c1ccnc(C(F)(F)F)[nH]1` was tested, and the survivor count (T/C endpoint: mean survival time, dose: 400.0 mg/kg/injection, schedule: Q01DX009 (ip), vehicle: saline) was 0 of 6.

`O=C1CC(c2ccc(Br)cc2)N(c2ccc([As](=O)(O)O)cc2)C1=O` (centres undefined) was tested, and the survivor count (T/C endpoint: mean survival time, dose: 25.0 mg/kg/injection, schedule: Q01DX009 (ip), vehicle: Klucel (hydroxypropylcellulose) (HPC)) was 0 of 6.

In the case of `CCN1CC1` (tested in a mixture with another compound), the survivor count (T/C endpoint: mean survival time, dose: 21.3 mg/kg/injection, schedule: Q04DX003 (ip), vehicle: Klucel (hydroxypropylcellulose) (HPC)) is reported as 0 of 6, the survivor count (T/C endpoint: mean survival time, dose: 35.0 mg/kg/injection, schedule: Q04DX003 (ip), vehicle: acetone) is reported as 2 of 6 and the survivor count (T/C endpoint: mean survival time, dose: 50.0 mg/kg/injection, schedule: Q04DX003 (ip), vehicle: acetone) is reported as 0 of 6. The survivor count (T/C endpoint: mean survival time, dose: 75.0 mg/kg/injection, schedule: Q04DX003 (ip), vehicle: acetone) was 0 of 6.

`CCCCCCCCCCCCC/C=N/NC(=O)c1ccc[n+](C)c1` was tested, and the survivor count [7] was 3 of 6.

For `CCc1ccccc1NC(=O)/C=C/C(=O)O`, the survivor count [6] was 3 of 6.

`CCCCCC/C=N/[N+](C)(C)C` was tested, and the survivor count (T/C endpoint: mean survival time, dose: 100.0 mg/kg/injection, schedule: Q01DX009 (ip), vehicle: saline) was 0 of 3 and the survivor count (T/C endpoint: mean survival time, dose: 200.0 mg/kg/injection, schedule: Q01DX009 (ip), vehicle: saline) was 0 of 3.

For `Nc1ccn(C2OC(CO)C(OP(=O)(O)O)C2O)c(=O)n1` (centres undefined), the T/C (T/C endpoint: mean survival time, dose: 50.0 mg/kg/injection, schedule: Q01DX009 (oral), vehicle: saline) was 136 % of control and the T/C (T/C endpoint: mean survival time, dose: 100.0 mg/kg/injection, schedule: Q01DX009 (oral), vehicle: saline) was 136 % of control.

For `CC(=O)n1cc(F)c(=O)[nH]c1=O`, the T/C (T/C endpoint: mean survival time, dose: 11.0 mg/kg/injection, schedule: Q01DX009 (ip), vehicle: saline) was 143 % of control, the survivor count [4] was 6 of 6 and the survivor count [2] was 6 of 6.

`C=CCCCCCCCCC(=O)NC(C)COC` (centres undefined) was tested, and the survivor count [7] was 0 of 6.

`COc1ccc(-c2nnc(-c3ccc(OC)c(Cl)c3)nn2)cc1Cl` was tested, and the survivor count [3] was 6 of 6.

With `Nc1nc(-c2cccc3ccccc23)cc2ccccc12` the survivor count [5] was 0 of 6 and 2 of 6.

With `Cc1ccccc1N=C(N)Nc1ccccc1C` the survivor count (T/C endpoint: mean survival time, dose: 20.0 mg/kg/injection, schedule: Q04DX003 (ip), vehicle: saline with Tween-80) was 1 of 6 and the survivor count (T/C endpoint: mean survival time, dose: 40.0 mg/kg/injection, schedule: Q04DX003 (ip), vehicle: saline with Tween-80) was 2 of 6.

With `N#CCCCSc1ccccc1` the survivor count [1] was 0 of 6.
